From PubChem BioAssay AID1671190 (National Center for Advancing Translational Sciences (NCATS), 2021)
Where “and” joins values, the source holds several entries; their conditions need not be identical. Equal values may be shown once. The campaign covered roughly 580,000 compounds. About 6,100 (1.1%) were called active. The inconclusive results got no clear call from the source; some entries with a clear call stand among them for comparison. Calls follow the shape of the dose curve; as a rule, active = well fitted inhibition curve with a large enough effect; inconclusive = small, poorly fitted or top-dose-only effect, or another doubt; inactive = no such curve, though single readings can be large or run the other way. Potencies beside an inconclusive call are fits to weak or partial responses and may not hold up.

Chains of the proteins cited; added tags and fusions are not shown. Lines headed by an entry give the natural chain unless they say otherwise; changes in a name come on top.
UniProt P18054: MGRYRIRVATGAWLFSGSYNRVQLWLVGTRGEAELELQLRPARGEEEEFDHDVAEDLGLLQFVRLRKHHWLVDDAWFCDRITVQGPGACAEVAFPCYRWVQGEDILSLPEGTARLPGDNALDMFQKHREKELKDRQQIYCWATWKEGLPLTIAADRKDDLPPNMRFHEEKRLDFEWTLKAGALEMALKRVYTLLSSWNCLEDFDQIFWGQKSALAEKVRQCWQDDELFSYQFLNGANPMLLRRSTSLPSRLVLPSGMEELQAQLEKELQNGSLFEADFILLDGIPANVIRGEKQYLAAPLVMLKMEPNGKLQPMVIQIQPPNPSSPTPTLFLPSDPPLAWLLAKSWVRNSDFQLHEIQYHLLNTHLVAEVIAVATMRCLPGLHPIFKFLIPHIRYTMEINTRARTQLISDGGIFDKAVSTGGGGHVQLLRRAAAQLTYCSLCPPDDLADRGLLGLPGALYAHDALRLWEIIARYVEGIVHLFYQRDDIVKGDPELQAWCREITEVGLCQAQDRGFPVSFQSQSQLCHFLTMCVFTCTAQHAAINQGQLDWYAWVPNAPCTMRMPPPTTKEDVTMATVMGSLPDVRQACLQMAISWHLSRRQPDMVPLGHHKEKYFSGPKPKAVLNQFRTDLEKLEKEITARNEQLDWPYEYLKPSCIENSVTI

The compounds below were run against Polyunsaturated fatty acid lipoxygenase ALOX12 (Homo sapiens) (UniProt P18054) (assay: Primary qHTS assay for inhibitors of human arachidonate 12S-lipoxygenase (ALOX12): Round 2). Settings: purified 12hLO, xylenol orange hydroperoxide absorbance; activity change, negative = inhibition: at 108 µM (top of the series) unless noted.
In short: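 Purified human 12hLO (150 nM final) in 25 mM Hepes, 0.01% Triton X-100, pH 7.0 was preincubated 15 min at room temperature with compound. Then 40 uM arachidonic acid was added, 30 min. Hydroperoxide was read by Fe-XO absorbance ratio 573/405 nm.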
% is scaled to controls: 0 for no effect and ±100 for the full control effect; potency is read from the fitted curve at half-maximal effect.

**Q.** `CC(C)C(=O)NCCCc1ccccc1` was tested. Which Potency did it give?
**A.** Its Potency is inconclusive: 141 µM [inhibitor, partial curve, poor fit].

**Q.** How did the “activity change, negative = inhibition” value turn out when `COC(=O)c1sc(Nc2ccccc2)nc1C` was run?
**A.** Its value is inactive: -7.94%.

**Q.** For `Cc1ccc2oc(=O)c(/C=C(\O)c3cccs3)nc2c1`, which “activity change, negative = inhibition” value is on record?
**A.** Its value is inactive: -14.4%.

**Q.** `CSCCC(C(=O)Nc1c(C)cccc1C)N1CCN(c2ccc(C(F)(F)F)cn2)CC1` (centres undefined) was tested. Which Potency did it give?
**A.** Its Potency is inconclusive: 35.5 µM [inhibitor, single point].

**Q.** `COc1ccc(C2CC=C(C(C)=O)CN2S(=O)(=O)c2ccc(Cl)cc2)cc1` (centres undefined) was tested. Which Potency did it give?
**A.** Its Potency is inconclusive: 17.8 µM [inhibitor, partial curve] and inconclusive: 39.8 µM [inhibitor, partial curve].

**Q.** For `CC1CN(CCOc2ccc([N+](=O)[O-])cc2)CC(C)O1` (centres undefined), which “activity change, negative = inhibition” value is on record?
**A.** The value was inactive: -25.2%.

**Q.** How did the “activity change, negative = inhibition” value turn out when `Cn1c(=O)cc(SCC(=O)Nc2cccnc2)c2ccccc21` was run?
**A.** The value was inactive: -27%.

**Q.** `COc1ccc([C@@H]2CC=C(C(=O)O)[C@H](c3ccc(Br)cc3)N2S(=O)(=O)c2ccccc2C)cc1` was tested. Which Potency did it give?
**A.** The Potency was inconclusive: 112 µM [inhibitor, single point].

**Q.** Which Potency does the source give for `Nc1[nH]c(C(=O)c2ccccc2)c(-c2ccc(Br)cc2)c1C(=O)NC1CC1` here?
**A.** The Potency was inconclusive: 44.7 µM [inhibitor, single point].

**Q.** With `O=C(COC(=O)CSc1ccc(Cl)cc1)Nc1ccc2[nH]c(=O)[nH]c2c1` as the compound, how does the Potency read?
**A.** The Potency was inconclusive: 112 µM [inhibitor, partial curve, poor fit].

**Q.** `Cc1noc(C)c1C(=O)N1CCN(c2ccc(OCc3ccccc3)cc2)CC1` was tested. Which “activity change, negative = inhibition” value did it give?
**A.** The value was inactive: -24%.

**Q.** With `CCC(=O)N[C@@H]1CCc2cccc(OC)c2C1` as the compound, how does the Potency read?
**A.** The Potency was inconclusive: 50.1 µM [inhibitor, partial curve, poor fit].

**Q.** For `O=[N+]([O-])c1ccc2nc(Cl)ccc2c1`, which Potency is on record?
**A.** Its Potency is inconclusive: 35.5 µM [inhibitor, single point].

**Q.** `Cc1cc(-c2n[nH]c(=S)n2/N=C/c2ccccc2[N+](=O)[O-])n[nH]1` was tested. Which Potency did it give?
**A.** The Potency was inconclusive: 50.1 µM [inhibitor, partial curve, poor fit].

**Q.** For `Cc1ncsc1C(=O)NCc1ccccc1`, which Potency is on record?
**A.** The Potency was inconclusive: 28.2 µM [inhibitor, single point].

**Q.** How did the Potency turn out when `COc1ccccc1C(=O)NC(=S)Nc1ccc(S(=O)(=O)N2CCN(C)CC2)cc1` was run?
**A.** The Potency was inconclusive: 50.1 µM [inhibitor, partial curve, poor fit].

**Q.** Which Potency does the source give for `Cc1ccc(N2CC(C(=O)Nc3cc(C)ccc3F)CC2=O)cc1` (centres undefined) here?
**A.** Its Potency is inconclusive: 2.24 µM [inhibitor, full curve, poor fit].

**Q.** With `COCCN1C(=O)Cc2ccccc2C1C(=O)NCc1cc(F)ccc1F` (centres undefined) as the compound, how does the “activity change, negative = inhibition” value read?
**A.** Its value is inactive: 17.4%.

**Q.** Which Potency does the source give for `CCc1ccc(S(=O)(=O)Nc2ccc3nc(N4CCN(CCC#N)CC4)cc(C(=O)O)c3c2)cc1` here?
**A.** The Potency was active: 11.2 µM.
